This is one part of the list. Further columns of the screen follow, without active or inactive calls. Most of these compounds were active or inconclusive in the main read-out, so they are no random draw. Words in brackets tell the shape of the fitted curve; partial curves, single points and poor fits give uncertain potencies.
Assay: qHTS Assay for Lipid Storage Modulators in Drosophila S3 Cells;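 as to cell number change: cells counted by Cell Tracker Red CMTPX staining in the red channel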
Conditions: BODIPY lipid droplet fluorescence, 18-24 h; for cell number change: measured here: cell count max response, cells fed with added oleic acid
Procedure, shortened: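 Laser-scanning cytometry quantifies lipid droplet accumulation (500–530 nm total intensity; droplet/cell object ratio) in oleic acid-fed (400 uM added) Drosophila S3 cells treated with a concentration series. 20 uM Triacsin C defined 100% inhibition.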

[1] = measured here: cell number channel AC50, cells fed with added oleic acid
[2] = measured here: lipid fluorescence (Fed channel) AC50, cells fed with added oleic acid

O=C(O)CCn1cc(/C=C2/NC(=S)N(c3ccccc3)C2=O)c(-c2ccccc2)n1
cell number change: 33.9% | AC50 [1]: 0.651 µM [rising, full curve]

Cc1cc(C)nc(N/N=C/c2c(CO)cnc(C)c2O)n1
cell number change: -17.1% | AC50 [2]: 0.259 µM [rising, full curve]

CCOC(=O)c1c(-c2ccccc2)oc2ccc(OCC(=O)NN)cc12
cell number change: -25.2% | AC50 [2]: 29.1 µM [falling, single point]

Cc1cccc(C)c1NC(=O)NC1(C(=O)N2CCN3CCCC3C2)CCCCC1 (configuration not stated)
cell number change: 15.5%

COc1ccc(-n2nc(C(=O)NCC(=O)N3CCN(c4ccccc4F)CC3)c3ccccc3c2=O)cc1
cell number change: 4.05%

Cc1cccc(C(=O)O/N=C2\CCSc3ccc(C)cc32)c1
AC50 [1]: 0.146 µM [falling, full curve, poor fit] | AC50 [2]: 23.1 µM [falling, partial curve]

CCOC(=O)/C=C1\SCC(=O)N1CC(=O)NC(c1ccccc1)c1ccccc1
cell number change: -1.1% | AC50 [2]: 20.6 µM [falling, single point]

COc1ccc2[nH]c(C(=O)O)c(CCNC(=O)/C=C/c3ccc(O)c(OC)c3)c2c1
cell number change: -22.8% | AC50 [2]: 3.26 µM [rising, single point]

CCOC(=O)c1c(C)[nH]c(C(=O)COC(=O)C2CC2C)c1C (configuration not stated)
AC50 [1]: 3.66 µM [rising, partial curve]

COc1cc(C(=O)Oc2cccc(/C=N/NC(=O)c3cc(C)[nH]n3)c2)cc(OC)c1OC
cell number change: 19.7% | AC50 [2]: 6.51 µM [rising, partial curve, poor fit]

COCCNS(=O)(=O)c1cc(OC)c(C)cc1C
cell number change: 27% | AC50 [2]: 5.17 µM [rising, partial curve, poor fit]

COc1ccc(Oc2cc(NN3CCCCC3)c([N+](=O)[O-])cc2[N+](=O)[O-])cc1OC
cell number change: 19.1% | AC50 [2]: 29.1 µM [rising, single point]

COc1ccc(NC(=O)CCNS(=O)(=O)c2cc(Br)cnc2N)cc1OC
cell number change: -17.3% | AC50 [2]: 0.731 µM [falling, full curve]

CC(C)Cn1c(N)c(C(=O)COC(=O)c2ccc3c(c2)OCCO3)c(=O)n(C)c1=O
AC50 [1]: 2.06 µM [rising, partial curve] | AC50 [2]: 0.58 µM [rising, single point]

O=C(O)c1cccc(CSc2ncccn2)c1
cell number change: -8.28% | AC50 [2]: 5.8 µM [falling, full curve]

O=C(O)COc1ccc(-c2nnn(Cc3ccccc3F)n2)cc1
cell number change: -4.73% | AC50 [2]: 14.6 µM [falling, single point]

Brc1cc2c(cc1Br)OCCOCCOCCOCCO2
cell number change: 10.4% | AC50 [1]: 2.06 µM [rising, partial curve] | AC50 [2]: 0.116 µM [rising, full curve, poor fit]

CC(C)c1ccc(S(=O)(=O)N2CCN(C(=O)CCNS(=O)(=O)c3ccccc3F)CC2)cc1
cell number change: 27.6% | AC50 [2]: 18.4 µM [rising, single point]

O=C(NCc1ccccc1F)C1CCN(C(=O)NCc2ccccc2)CC1
cell number change: -2.92% | AC50 [2]: 0.00517 µM [falling, full curve, poor fit]

COc1ccc(S(=O)(=O)N(CC(=O)NCc2ccncc2)c2cc(C)cc(C)c2)cc1OC
cell number change: 10.3% | AC50 [2]: 29.1 µM [rising, single point]

Cc1c(C)c2c(OCC(=O)Nc3ccc(CCO)cc3)cc3c(c2oc1=O)CCC(C)(C)O3
cell number change: -10.5% | AC50 [2]: 0.411 µM [falling, full curve]

COc1cccc(NC(=O)C(=O)NCCC2CCCCN2S(=O)(=O)c2ccccc2)c1 (configuration not stated)
AC50 [2]: 10.3 µM [falling, partial curve]

Cc1ccc(NC(=O)CCC(=O)NNC(=O)CCc2ccccc2)c(C)c1
AC50 [1]: 0.00517 µM [rising, full curve, poor fit]

CCOc1ccc(NC(=O)C2CC(=O)N3CCCN=C3S2)cc1 (configuration not stated)
cell number change: 8.36% | AC50 [2]: 29.1 µM [rising, single point]

COCCN(CCOC)S(=O)(=O)c1ccc(C(=O)Nc2ccc(S(=O)(=O)Nc3nccc(C)n3)cc2)cc1
cell number change: -49.2% | AC50 [1]: 16.4 µM [falling, single point] | AC50 [2]: 18.4 µM [falling, single point]

COc1ccc(/C=C/C(=O)Nc2nc(N)n(-c3ccccc3)n2)cc1
cell number change: 13.3% | AC50 [2]: 0.116 µM [rising, full curve]

CCN(CC)Cc1c(C(=O)N/N=C/c2c(Cl)cccc2Cl)nnn1-c1nonc1N
cell number change: 23.1% | AC50 [2]: 5.17 µM [falling, single point]

O=C(CSc1ccccc1C(=O)NCCCN1CCCC1=O)NCc1ccco1
cell number change: -8.3% | AC50 [2]: 6.51 µM [falling, single point]

COc1ccc([N+](=O)[O-])cc1NC(=O)CSc1ccccc1
cell number change: 69.6%

CN(C)S(=O)(=O)c1cccc(C(=O)OCC(=O)Nc2ccccc2OC(F)F)c1
cell number change: 8.54% | AC50 [2]: 0.517 µM [rising, full curve, poor fit]

Clc1ccc(Oc2nnnn2-c2ccccc2)cc1
cell number change: 14.9% | AC50 [2]: 0.206 µM [falling, full curve, poor fit]

CC1CN(C(=O)C(C)Sc2nc3ccccc3s2)CC(C)O1 (configuration not stated)
cell number change: -16.9% | AC50 [1]: 0.0651 µM [falling, full curve, poor fit]

CCCNc1c(F)c(F)c2c(C)c3ccccc3nc2c1F
AC50 [2]: 18.4 µM [falling, partial curve]

O=C(O)Cn1cc2c(n1)CCCC2
cell number change: -19.5%

CC(C)c1nc2ccccc2n1CCC(=O)O
AC50 [2]: 18.4 µM [falling, partial curve]

NC1=NC(=O)C2(COC(c3cccc([N+](=O)[O-])c3)OC2)S1 (configuration not stated)
cell number change: -2.08%

COC(=O)c1ccc(C(=O)OC)c(NC(=S)N2CC(C)CC(C)C2)c1 (configuration not stated)
cell number change: 22.7% | AC50 [2]: 1.64 µM [rising, partial curve, poor fit]

Cc1nc(N2CCOCC2)nc(OCCN(C)C)c1[N+](=O)[O-]
cell number change: 0.25% | AC50 [2]: 14.6 µM [rising, single point]

COc1ccc(CCNC(=S)N2CCN(S(=O)(=O)c3ccc(Cl)cc3)CC2)cc1
cell number change: 19.5%

CCC(Sc1nc(C)cc(=O)[nH]1)C(=O)Nc1nc2c(s1)CCCC2 (configuration not stated)
AC50 [2]: 4.11 µM [falling, partial curve]

COc1ccc(N2CCN(CCCn3c(=S)[nH]c4ccccc4c3=O)CC2)cc1
cell number change: -12.6% | AC50 [1]: 0.731 µM [falling, full curve] | AC50 [2]: 5.17 µM [falling, single point]

COc1ccccc1C(=O)COC(=O)C(CCSC)NC(=O)COc1ccccc1 (configuration not stated)
cell number change: 37% | AC50 [1]: 23.1 µM [rising, single point]

COc1ccc(C(=O)NC(=S)Nc2cc3oc4ccccc4c3cc2OC)cc1
cell number change: -33.3% | AC50 [1]: 32.6 µM [falling, single point] | AC50 [2]: 0.326 µM [rising, full curve, poor fit]

COc1ccccc1C(=O)NC(=O)COC(=O)c1ccc(Cl)cc1[N+](=O)[O-]
cell number change: -4.06% | AC50 [2]: 29.1 µM [rising, single point]

O=C(c1ccncc1)N1CCN(c2cccc(C(F)(F)F)c2)CC1
cell number change: 126% | AC50 [1]: 20.6 µM [rising, partial curve] | AC50 [2]: 1.3 µM [rising, full curve]

CC(=O)CSc1nc2c(c(=O)[nH]c(=O)n2C)n1Cc1cccc(Br)c1
cell number change: -4.39% | AC50 [2]: 20.6 µM [falling, single point]

Cc1ccc(C(=O)Cn2c(-c3ccccc3)noc2=O)cc1
cell number change: 16.5% | AC50 [2]: 29.1 µM [rising, single point]

COc1ccccc1N(CC(O)CN1C(=O)NC(C)(C)C1=O)S(=O)(=O)c1ccc(C)cc1 (configuration not stated)
cell number change: -6.11% | AC50 [2]: 0.0146 µM [falling, full curve, poor fit]

O=C(CCN1CCCCC1)Nc1cccc(Cl)c1
AC50 [2]: 23.1 µM [falling, partial curve]

Cc1nc(N)sc1-c1nnc(SCC(=O)Nc2ccccc2C(F)(F)F)n1C
cell number change: 64.4% | AC50 [1]: 14.6 µM [rising, partial curve] | AC50 [2]: 14.6 µM [rising, partial curve]

COc1ccccc1CNC(=O)CCN1C(=O)c2ccccc2C1=O
cell number change: 13.5% | AC50 [2]: 18.4 µM [rising, single point]

O=C(Nc1cccc2ccccc12)/C(=C\c1cccc([N+](=O)[O-])c1)NC(=O)c1cccs1
cell number change: -8.47% | AC50 [2]: 29.1 µM [falling, single point]

O=C1CC(NCC2CCCO2)C(=O)N1c1ccc(F)cc1 (configuration not stated)
cell number change: -23.7% | AC50 [2]: 2.91 µM [falling, partial curve]

CCc1ccccc1N1C(=O)c2cccc3c(N4CCOCC4)c([N+](=O)[O-])cc(c23)C1=O
cell number change: -40.7% | AC50 [1]: 29.1 µM [falling, single point] | AC50 [2]: 18.4 µM [falling, partial curve]

COc1ccc(OC)c(CN2CCC(C(=O)N3CCOCC3)CC2)c1
cell number change: 11.1% | AC50 [1]: 0.461 µM [falling, single point]

Cc1ccc(C)c(OCCCCN2CCNCC2)c1C
cell number change: -16% | AC50 [2]: 18.4 µM [rising, single point]

COC(=O)NNC(=O)c1ccc(C)c(Br)c1
AC50 [2]: 0.82 µM [rising, single point]

CN1C(=O)N(C)C2(c3ccccc3)N(C(C)(C)C)C(=O)NC12c1ccccc1 (configuration not stated)
cell number change: -18% | AC50 [2]: 0.00517 µM [rising, full curve, poor fit]

Nc1nnc(SCC(=O)NC2CCCC2)s1
cell number change: 23.3% | AC50 [2]: 29.1 µM [rising, single point]

CC(=O)NC(Cc1ccc(C(C)C)cc1)C(=O)NC1CCN(c2nc(C)cc(C)n2)CC1 (configuration not stated)
cell number change: -5.15%
